According to patent US4117151A, “Therapeutic sulfonamides” (priority 1976, dated 1978):
At least one read-out could not be matched to a standard name with certainty. Some ranges recur; such a range may be that of the whole group of compounds.

What was measured:
Type in all cases: in vivo
[1] = tested on: cardiac frequency; assay: Test A: reduction in cardiac frequency in normal dog; settings: 10 mg/kg intravenous, acid addition salt
[2] = tested on: arterial blood-pressure; assay: Test B: reduction in arterial blood-pressure in normal dog; settings: 10 mg/kg intravenous, acid addition salt
[3] = tested on: isoprenaline-accelerated heart-rate; assay: Test C: reduction of isoprenaline-accelerated heart-rate in atropinised dog; settings: atropine sulphate 1 mg/kg i.v., compound 10 mg/kg intravenous, acid addition salt
[4] = tested on: epinephrine-increased blood-pressure; assay: Test D: reduction of epinephrine-increased blood-pressure in atropinised dog; settings: atropine sulphate 1 mg/kg i.v., compound 10 mg/kg intravenous, acid addition salt, same system as Test C

SMILES | Test A: reduction in cardiac frequency (percentage of initial heart-rate) [1] | Test B: reduction in arterial blood-pressure (percentage of initial pressure) [2] | Test C: reduction of isoprenaline-accelerated heart-rate [3] | Test D: reduction of epinephrine-increased blood-pressure [4]
CCCCc1oc2ccccc2c1C(=O)c1ccc(N(CCCN(CC)CC)S(=O)(=O)c2ccc(C)cc2)cc1 [Compound 5, 2-n-butyl-3-[N-(3-diethylaminopropyl)-N-(4-methyl-benzenesulfonyl)-4-amino-benzoyl]-benzofuran] | 3 (30% to 35%) | 3 (16% to 20%) | 2 (30% to 39%) | 3 (40% to 44%)
CCCN(CCC)CCCN(c1ccc(C(=O)c2c(CC)oc3ccccc23)cc1)S(=O)(=O)c1ccc(C)cc1 [Compound 4, 2-ethyl-3-[N-(3-di-n-propylaminopropyl)-N-(4-methyl-benzenesulfonyl)-4-amino-benzoyl]-benzofuran] | 3 (30% to 35%) | 3 (16% to 20%) | 2 (30% to 39%) | 3 (40% to 44%)
CCCCc1oc2ccccc2c1C(=O)c1ccc(N(CCCN(CCCC)CCCC)S(=O)(=O)c2ccc(OC)cc2)cc1 [Compound 14, 2-n-butyl-3-[N-(3-di-n-butylaminopropyl)-N-(4-methoxy-benzenesulfonyl)-4-amino-benzoyl]-benzofuran] | 3 (30% to 35%) | 3 (16% to 20%) | 3 (40% to 44%) | 2 (30% to 39%)
CCCCN(CCCC)CCCN(c1ccc(C(=O)c2c(C(C)C)oc3ccccc23)cc1)S(=O)(=O)c1ccc(C)cc1 [Compound 11, 2-isopropyl-3-[N-(3-di-n-butylaminopropyl)-N-(4-methyl-benzenesulfonyl)-4-amino-benzoyl]-benzofuran] | 2 (20% to 29%) | 3 (16% to 20%) | 2 (30% to 39%) | 2 (30% to 39%)
CCCCN(CCCC)CCCN(c1ccc(C(=O)c2c(CCC)oc3ccccc23)cc1)S(=O)(=O)c1ccc(C)cc1 [Compound 9, 2-n-propyl-3-[N-(3-di-n-butylaminopropyl)-N-(4-methyl-benzenesulfonyl)-4-amino-benzoyl]-benzofuran] | 3 (30% to 35%) | 3 (16% to 20%) | 3 (40% to 44%) | 3 (40% to 44%)
CCCc1oc2ccccc2c1C(=O)c1ccc(N(CCCN(CCC)CCC)S(=O)(=O)c2ccc(C)cc2)cc1 [Compound 8, 2-n-propyl-3-[N-(3-di-n-propylaminopropyl)-N-(4-methyl-benzenesulfonyl)-4-amino-benzoyl]-benzofuran] | 3 (30% to 35%) | 3 (16% to 20%) | 2 (30% to 39%) | 2 (30% to 39%)
CCCCc1sc2ccccc2c1C(=O)c1ccc(N(CCN(C)C)S(=O)(=O)c2ccc(C)cc2)cc1 [Compound 10, 2-n-butyl-3-[N-(2-dimethylaminoethyl)-N-(4-methyl-benzenesulfonyl)-4-amino-benzoyl]-benzo[b]thiophene] | 2 (20% to 29%) | 3 (16% to 20%) | 2 (30% to 39%) | 2 (30% to 39%)
CCc1sc2ccccc2c1C(=O)c1ccc(N(CCN(CC)CC)S(=O)(=O)c2ccc(C)cc2)cc1 [Compound 12, 2-ethyl-3-[N-(2-diethylaminoethyl)-N-(4-methyl-benzenesulfonyl)-4-amino-benzoyl]-benzo[b]thiophene] | 2 (20% to 29%) | 3 (16% to 20%) | 2 (30% to 39%) | 2 (30% to 39%)
CCCCc1oc2ccccc2c1C(=O)c1ccc(N(CCCN(CCC)CCC)S(=O)(=O)c2ccc([N+](=O)[O-])cc2)cc1 [Compound 13, 2-n-butyl-3-[N-(3-di-n-propylaminopropyl)-N-(4-nitro-benzenesulfonyl)-4-amino-benzoyl]-benzofuran] | 3 (30% to 35%) | 3 (16% to 20%) | 3 (40% to 44%) | 3 (40% to 44%)
CCCCc1oc2ccccc2c1C(=O)c1ccc(N(CCN(C)C)S(=O)(=O)c2ccc(C)cc2)cc1 [Compound 7, 2-n-butyl-3-[N-(2-dimethylaminoethyl)-N-(4-methyl-benzenesulfonyl)-4-amino-benzoyl]-benzofuran] | 3 (30% to 35%) | 3 (16% to 20%) | 3 (40% to 44%) | 3 (40% to 44%)
CCCCN(CCCC)CCCN(c1ccc(C(=O)c2c(CC)oc3ccccc23)cc1)S(=O)(=O)c1ccc(C)cc1 [Compound 1, 2-ethyl-3-[N-(3-di-n-butylaminopropyl)-N-(4-methyl-benzenesulfonyl)-4-amino-benzoyl]-benzofuran] | 3 (30% to 35%) | 3 (16% to 20%) | 2 (30% to 39%) | 2 (30% to 39%)
CCc1oc2ccccc2c1C(=O)c1ccc(N(CCN(C)C)S(=O)(=O)c2ccc(OC)cc2)cc1 [Compound 2] | 2 (20% to 29%) | 3 (16% to 20%) | 2 (30% to 39%) | 3 (40% to 44%)
CCCCc1oc2ccccc2c1C(=O)c1ccc(N(CCCN(CCC)CCC)S(=O)(=O)c2ccc(C)cc2)cc1 [Compound 6, 2-n-butyl-3-[N-(3-di-n-propylaminopropyl)-N-(4-methyl-benzenesulfonyl)-4-amino-benzoyl]-benzofuran] | 3 (30% to 35%) | 3 (16% to 20%) | 2 (30% to 39%) | 2 (30% to 39%)
CCc1oc2ccccc2c1C(=O)c1ccc(N(CCN(CC)CC)S(=O)(=O)c2ccc(OC)cc2)cc1 [Compound 3, 2-ethyl-3-[N-(2-diethylaminoethyl)-N-(4-methoxy-benzenesulfonyl)-4-amino-benzoyl]-benzofuran] | 3 (30% to 35%) | 3 (16% to 20%) | 2 (30% to 39%) | 2 (30% to 39%)
